# Reference: patent US12187722B2, “Small molecule inhibitors of TEAD transcription factors” (The General Hospital Corporation, priority 2019, dated 2025)
# Chains of the proteins cited; added tags and fusions are not shown.
# UniProt Q15562, whole entry: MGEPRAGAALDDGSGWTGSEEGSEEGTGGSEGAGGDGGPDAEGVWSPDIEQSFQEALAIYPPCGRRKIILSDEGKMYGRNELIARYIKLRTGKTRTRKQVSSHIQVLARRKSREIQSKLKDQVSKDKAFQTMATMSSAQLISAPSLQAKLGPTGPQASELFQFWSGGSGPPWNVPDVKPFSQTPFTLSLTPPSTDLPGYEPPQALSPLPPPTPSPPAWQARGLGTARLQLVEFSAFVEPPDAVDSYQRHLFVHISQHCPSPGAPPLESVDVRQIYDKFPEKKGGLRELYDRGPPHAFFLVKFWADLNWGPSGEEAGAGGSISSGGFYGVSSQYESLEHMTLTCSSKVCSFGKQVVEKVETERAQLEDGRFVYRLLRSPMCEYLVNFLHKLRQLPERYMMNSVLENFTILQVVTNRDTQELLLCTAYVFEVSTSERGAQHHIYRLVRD
# For at least one compound, name, drawing or mass did not settle the structure.
# Biological target: TEAD2 (Homo sapiens (Human), UniProt Q15562)
# Experiment: In vitro palmitoylation (TEAD2 autopalmitoylation, streptavidin blot)
# Format: biochemical
# Settings: Table 2, result printed in words
# Description: Recombinant GST-TEAD2 or His6TEAD2 (500 ng) protein was pre-incubated with the compounds at indicated concentrations for 15 min. and then incubated with 1 μM of alkyne palmitoyl-5 CoA (Cayman Chemical) for 30 min or 50 mM MES, pH 6.4, followed by Click reaction with biotin-azide as previously described (Zheng, B. et al., J. Am. Chem. Soc., 2013, 135, 7082-7085). Click reaction was performed with 100 μM biotin-azide, 1 mM tris(2-carboxyethyl) phosphine hydrochloride (TCEP), 100 μM tris[(1-benzyl-1H-1,2,3-triazol-4-yl) methyl] amine (TBTA) and 1 mM CuSO4 for 1 h at RT.
# The reactions were terminated by the addition of 12 μL of 6×SDS-sample loading buffer (50 mM Tris-HCl, pH 6.8, 6% SDS, 48% Glycerol, 0.03% Bromophenol Blue, 30 mM EDTA, 9% MeSH). Samples were analysed by SDS-PAGE and Western blot was performed by probing with streptavidin HRP and histidine HRP antibodies independently. Bands intensity obtained from streptavidin blot were quantified using BIORAD, Gel doc system and the percentage of inhibition of Tead2 auto palmitoylation is determined by comparing to the DMSO control treated samples.
# These compounds were tested for activity in inhibiting TEAD2 palmitoylation in the assay described above.
row,SMILES,inhibition of TEAD2 palmitoylation (YES/NO)
1,O=C(O)c1ccccc1NC1CCC(Nc2ccc(C34CC5CC(CC(C5)C3)C4)cc2Cl)CC1 (stereo not drawn) [Compound 70],NO
2,O=C(O)c1ccccc1NC1CCC(Nc2ccc(C34CC5CC(CC(C5)C3)C4)cc2Cl)CC1 (stereo not drawn) [Compound 71],YES
3,CC1C=C(c2ccc(Nc3ccc(Nc4ccccc4C(=O)O)cc3)c(Cl)c2)CC(C)C1 (stereo not drawn) [Compound 72],NO
